Values from PubChem BioAssay AID504764 (Drosophila RNAi Screening Center, 2011)
In all, the deposit lists about 22,000 reagents; shown is an unselected part of those with a known target gene and a result. Of all reagents, 403 (1.9%) got an active call. 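Unnormalised raw counts per well; ratio z-scores behind the hit calls and whether each hit raises or lowers signal are not deposited.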 Names joined by + are all predicted targets of the reagent. Not stated in the record: the amount of reagent.

Aim: 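Genes whose knock-down alters Notch-dependent transcription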 (primary screen)
Cells: Drosophila Kc167 cells
Reagents: long dsRNA against Drosophila genes
Timing: about 5 days (4 days dsRNA, then 24 h after transfection)
Challenge: transfection of constitutively active membrane-tethered Notch lacking the extracellular domain, read 24 h later
Read-out: 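Light from a Notch-responsive E(spl)m3 luciferase reporter under active Notch, with control-promoter and no-Notch reporter wells to normalise; raw counts from paired wells a and b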
Scale: induced reporter light, run 1, well a and induced reporter light, run 1, well b: higher = more light from the Notch target reporter with active Notch; control promoter light, run 1, well a and control promoter light, run 1, well b: higher = more light from the viral control promoter (cell number, transfection, viability); uninduced reporter light, run 1, well a: higher = more light from the Notch target reporter without active Notch
Active means: 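Wells with low control signal or poorly matching duplicates excluded; duplicates averaged; per source plate, z beyond ±2 for induced/control log2 ratio or beyond ±1.8 for induced/uninduced marks a hit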
Calls: active = modifier hit (raised or lowered Notch signal); inactive = not a hit

no.	target	DRSC id	induced reporter light, run 1, well a	induced reporter light, run 1, well b	control promoter light, run 1, well a	control promoter light, run 1, well b	uninduced reporter light, run 1, well a	call
1	CG32645	DRSC19683	1.28e5	1.32e5	1.89e5	2.03e5	9305	inactive
2	CG32645	DRSC19889	1.26e5	1.16e5	2.60e5	2.34e5	8265	inactive
3	CG11638	DRSC18167	1.07e5	1.22e5	1.71e5	2.20e5	8700	inactive
4	CG11638	DRSC18640	75105	74710	1.09e5	1.31e5	7240	inactive
5	hale	DRSC10882	1.43e5	1.34e5	1.38e5	1.37e5	8375	inactive
6	Hsdl2	DRSC15839	2.08e5	1.86e5	2.20e5	2.57e5	14535	inactive
7	betaTry	DRSC07582	1.04e5	1.03e5	1.26e5	1.22e5	9230	inactive
8	CG5885	DRSC02910	2.93e5	3.13e5	1.89e5	1.78e5	17875	active
9	Tbcd	DRSC00273	1.46e5	1.77e5	2.19e5	2.21e5	16200	inactive
10	CG8916	DRSC20120	1.08e5	86050	86550	83670	11382	inactive
11	CG40498	DRSC07786	87250	1.11e5	1.20e5	93345	8955	inactive
12	pre-mod(mdg4)-U + mod(mdg4)	DRSC13476	76615	83155	1.01e5	86830	10165	inactive
13	CG31086 + CG31323	DRSC14902	1.78e5	2.01e5	2.18e5	2.12e5	14205	inactive
14	clt	DRSC04621	53860	50920	47200	50570	3055	inactive
15	nAChRalpha2	DRSC17009	61565	62790	59655	52570	5165	inactive
16	Btnd	DRSC18316	1.31e5	1.33e5	2.27e5	2.18e5	9942	inactive
17	Men	DRSC12924	1.57e5	1.57e5	1.95e5	1.98e5	13480	inactive
18	Men	DRSC16738	81545	88990	85235	67360	5488	inactive
19	CCHa2	DRSC14835	2.42e5	2.72e5	2.29e5	2.59e5	22020	inactive
20	blanks	DRSC09757	2.04e5	2.07e5	2.58e5	2.38e5	11840	inactive
21	Dro	DRSC07406	1.05e5	87590	1.30e5	1.08e5	9430	inactive
22	Gprk1	DRSC20732	2.15e5	2.12e5	2.74e5	2.97e5	15788	inactive
23	Gprk1	DRSC20916	2.51e5	1.88e5	3.45e5	3.23e5	15010	inactive
24	CG42271	DRSC19809	1.94e5	2.09e5	2.16e5	1.99e5	12150	inactive
25	CG13223	DRSC06344	1.08e5	1.29e5	1.28e5	1.25e5	11755	inactive
26	Vps20	DRSC04448	1.95e5	1.64e5	1.47e5	1.72e5	13578	inactive
27	tyf	DRSC18382	1.18e5	1.39e5	1.86e5	2.24e5	11410	inactive
28	GstD10	DRSC15346	1.03e5	80350	67655	46745	5582	inactive
29	Ptpa	DRSC00776	1.76e5	1.82e5	1.79e5	1.63e5	14200	inactive
30	CG30053	DRSC07260	98025	96515	1.31e5	1.19e5	10305	inactive
31	Srp9	DRSC10973	2.39e5	1.99e5	2.98e5	2.55e5	14160	inactive
32	CG8369	DRSC16413	83355	91565	81395	73440	4330	inactive
33	Cals	DRSC17196	1.71e5	1.95e5	2.50e5	2.61e5	14600	inactive
34	bic	DRSC07584	85280	99565	77820	93810	7445	inactive
